# Where “and” joins values, the source holds several entries; their conditions need not be identical. Identical values can stand only once. Some of the results follow. This data set is noisy: repeats of one test often differ as much as different tests do.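 HEK293T cells were given each compound shortly before transfection with a reporter in which red mCherry is followed by the SARS-CoV-2 frameshift element and then GFP in the −1 frame, so GFP appears only after frameshifting.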
# Columns and labels:
# [1] = test system: SARS-CoV-2 -1 PRF reporter mCherry-FSE-GFP(-1); assay: mCherry (red) intensity as percent of control; higher = higher upstream reporter expression; details: 10 µM; 24 h; HEK293T
# [2] = test system: SARS-CoV-2 -1 PRF reporter mCherry-FSE-GFP(-1); assay: percent effect, decrease of GFP/mCherry ratio (-1 PRF reporter) relative to controls; higher = stronger frameshift inhibition; details: 10 µM; 24 h; HEK293T
Structure (SMILES),mCherry [1],percent effect [2]
CNC1Cc2ccccc2N(C)c2ccccc21 (stereo unspecified) [metapramine],70.9%,0.0203%
Brc1c(NC2=NCCN2)ccc2nccnc12 [brimonidine],123%,-1.7%
CC1CCCC(C)N1 (stereo unspecified) [nanofin],108%,-1.41%
CCN(CC)C(=O)c1cccc(C)c1,117%,-1.46%
CC1(C)O[C@@H]2C[C@H]3[C@@H]4CCC5=CC(=O)C=C[C@]5(C)[C@H]4[C@@H](O)C[C@]3(C)[C@]2(C(=O)CO)O1 [desonide],102%,-2.97%
COc1ccc2cccc(CCNC(C)=O)c2c1 [agomelatine],91.2%,-1.29%
CC[C@H]1OC(=O)[C@H](C)[C@@H](O[C@H]2C[C@@](C)(OC)[C@@H](O)[C@H](C)O2)[C@H](C)[C@@H](O[C@@H]2O[C@H](C)C[C@H](N(C)C)[C@H]2O)[C@](C)(O)C[C@@H](C)CN(C)[C@H](C)[C@@H](O)[C@]1(C)O,100%,-5.87%
C[C@]12CC[C@@H](O)C[C@@H]1CC[C@H]1[C@@H]3CC[C@H](C(=O)CO)[C@@]3(C)CC(=O)[C@@H]12 [alfadolone],92.2%,-1.72%
CN[C@H]1C(=O)N[C@@H]2Cc3ccc(cc3)Oc3cc4cc(c3O[C@@H]3O[C@H](C(=O)O)[C@@H](O)[C@H](O)[C@H]3NC(=O)CCCCCCCCC(C)C)Oc3ccc(cc3Cl)[C@@H](O)[C@@H]3NC(=O)[C@H](NC(=O)[C@@H]4NC(=O)[C@@H](NC2=O)c2cc(cc(O)c2Cl)Oc2cc1ccc2O)c1ccc(O)c(c1)-c1c(O[C@H]2O[C@H](CO)[C@@H](O)[C@H](O)[C@@H]2O)cc(O)cc1[C@@H](C(=O)NCCCN(C)C)NC3=O [Dalbavancin],86.8%,-1.2%
Cc1cc(C)nc(NS(=O)(=O)c2ccc(N)cc2)n1 [sulfadimidine],107%,-5.83%
COc1ccc(CCNC[C@H](O)c2ccc(O)cc2)cc1OC [denopamine],66.8%,-13.5%
CCCCN(CCCC)C(=O)CN1C[C@H](c2ccc3c(c2)OCO3)[C@@H](C(=O)O)[C@@H]1c1ccc(OC)cc1 [atrasentan],67.7%,0.32%
N#Cc1c(N(CC(=O)O)CC(=O)O)sc(C(=O)O)c1CC(=O)O [ranelic acid],75.9%,-1.07%
CN(C)c1cc(NC(=O)CNC(C)(C)C)c(O)c2c1C[C@H]1C[C@H]3[C@H](N(C)C)C(=O)C(C(N)=O)=C(O)[C@@]3(O)C(=O)C1=C2O [Tigecycline],100%,1.38%
CCc1ncnc2cc(OC)c(OC)cc12 [quazodine],87.2%,-6.52%
CO[C@H]1C[C@H](O[C@@H]2/C(C)=C\C[C@@H]3C[C@@H](C[C@]4(C=C[C@H](C)[C@@H](C(C)C)O4)O3)OC(=O)[C@@H]3C=C(C)[C@@H](O)[C@H]4OC/C(=C/C=C\[C@@H]2C)[C@]43O)O[C@@H](C)[C@H]1O[C@H]1C[C@@H](OC)[C@H](NC(C)=O)[C@H](C)O1 [eprinomectin],89.2%,-22%
CC(=O)c1ccc2c(c1)N(CCCN1CCN(CCO)CC1)c1ccccc1S2,104%,-0.613%
Cc1c(Nc2ncccc2C(=O)O)cccc1C(F)(F)F [flunixin],154%,-2.65%
C1CCN2C[C@H]3C[C@H](CN4CCCC[C@@H]34)[C@H]2C1,84.5%,0.928%
O=C1C(N2CCCCC2)CCN1c1ccccc1 (stereo unspecified) [felipyrine],108%,-2.5%
CCOC(=O)C1=C(C)NC(CN(C)C)=C(C(=O)OCC)C1c1ccccc1/C=C/C(=O)OC(C)(C)C (stereo unspecified) [teludipine],57.3%,3.87%
COc1ccc(-c2[nH]c3ccccc3c2-c2ccc(OC)cc2)cc1 [indoxole],60.9%,-3.98%
O=CN(O)CCCP(=O)(O)O [fosmidomycin],74.2%,-4.08%
NC(CO)C(=O)NNCc1ccc(O)c(O)c1O (stereo unspecified) [benserazide],82% and 72%,-2.62% and 2.14%
NC[C@H]1O[C@H](O[C@H]2[C@H](O)[C@@H](O[C@H]3O[C@H](CO)[C@@H](O)[C@H](N)[C@H]3O)[C@H](N)C[C@@H]2N)[C@H](N)[C@@H](O)[C@@H]1O,123%,-6.53%
CCOC(=O)C1=C(C)NC(C)=C(C(=O)OCC)C1c1ccccc1/C=C/C(=O)OC(C)(C)C [Lacidipine],81%,-4.65%
OCc1ccccc1O,109%,-1.99%
CC[C@H](C)[C@H](NC(=O)[C@H](Cc1ccccc1)NC(=O)[C@H](C)NC(=O)[C@H](CC(=O)O)NC(=O)[C@H](CCCCN)NC(=O)[C@H](CO)NC(=O)[C@@H]1CCCN1C(=O)[C@@H]1CCC(=O)N1)C(=O)NCC(=O)N[C@@H](CC(C)C)C(=O)N[C@@H](CCSC)C(N)=O [eledoisin],118%,5.54%

# Source: the supplement of paper PMC8256030
